Laboratory results: PMC6279836, “The LPG1x family from Leishmania major is constituted of rare eukaryotic galactofuranosyltransferases with unprecedented catalytic properties” (Scientific Reports, 2018)
Results are given in words; binding and its absence hold for the method and conditions named. In cells and extracts the contact can be indirect. These calls come from enrichment with a bait or labelling near it, and not all partners need be listed. Tags and fused reporters may be left off the sequences shown.

Chains of the proteins cited; added tags and fusions are not shown.
UniProt P0A6F5: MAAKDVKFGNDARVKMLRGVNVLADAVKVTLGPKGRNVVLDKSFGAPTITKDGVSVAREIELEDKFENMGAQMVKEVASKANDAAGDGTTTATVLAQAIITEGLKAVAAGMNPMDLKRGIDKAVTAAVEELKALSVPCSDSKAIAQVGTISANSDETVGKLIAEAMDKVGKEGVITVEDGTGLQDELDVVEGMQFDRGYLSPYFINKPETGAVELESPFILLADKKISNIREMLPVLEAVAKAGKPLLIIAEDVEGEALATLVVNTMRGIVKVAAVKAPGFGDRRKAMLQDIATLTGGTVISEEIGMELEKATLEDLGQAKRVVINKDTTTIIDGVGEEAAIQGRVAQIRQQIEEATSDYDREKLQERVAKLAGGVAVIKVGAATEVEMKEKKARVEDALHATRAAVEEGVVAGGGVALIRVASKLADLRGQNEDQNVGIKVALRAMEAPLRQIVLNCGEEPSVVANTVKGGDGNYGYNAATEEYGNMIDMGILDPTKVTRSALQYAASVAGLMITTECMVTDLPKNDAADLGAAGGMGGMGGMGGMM

Target: T1, His-tagged recombinant LPG1 without the transmembrane domain (Leishmania major) (UniProt Q9NC61)
T1 sequence: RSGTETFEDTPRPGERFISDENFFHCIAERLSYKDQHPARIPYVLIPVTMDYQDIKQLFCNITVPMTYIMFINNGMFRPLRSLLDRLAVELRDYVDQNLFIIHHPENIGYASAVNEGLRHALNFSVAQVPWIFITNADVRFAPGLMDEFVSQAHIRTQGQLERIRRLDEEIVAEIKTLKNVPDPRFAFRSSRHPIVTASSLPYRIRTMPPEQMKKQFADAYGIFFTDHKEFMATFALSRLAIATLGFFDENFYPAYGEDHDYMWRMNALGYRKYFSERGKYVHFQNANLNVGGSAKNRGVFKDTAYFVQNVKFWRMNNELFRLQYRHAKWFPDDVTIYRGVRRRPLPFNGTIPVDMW
Assay: affinity purification with mass spectrometry; His-tagged LPG1x proteins over-expressed from pET vectors in various E. coli strains and purified; GroEL stayed with them and was identified by HRMS; literature protocols to remove it failed

For “GroEL chaperonin (from UniProt P0A6F5 1-548)”, the binding was “binds”.
